Laboratory results published in PMC5773651, “Customised in vitro model to detect human metabolism-dependent idiosyncratic drug-induced liver injury” (Archives of Toxicology, 2017).

System: HepG2 cells transduced with AdCYP2E1
Assay: Cell viability (PI), IC50, AdCYP2E1-HepG2
Format: cell-based, human
Settings: IC50 control / IC50 ADV CYP2E1 x10
Experimental: For subculturing purposes, cells were detached by treatment with 0.25% trypsin/0.02% EDTA at 37 °C. For the adenovirus infection studies, cells were seeded in 96-well plates (5000 cells/well) and adenovirus-containing medium was added 48 h later. After 24 h, cells were transferred to the adenovirus-free medium and cultured for an additional 24-h period prior to the incubations performed with the test chemicals. To optimise the expression of the functional enzymes in the adenovirus-transduced HepG2 (Ad-HepG2) cells, different doses (MOI, multiplicity of infection, defined as plaque formation units per cell) of each adenovirus were tested.
The drugs included in the study were chosen based on previous information about their hepatotoxicity. […] Each experimental condition was repeated independently three times (with three wells measured each time). […]
After incubating with dyes, cells were imaged by the Scan^R system (Olympus, Germany). Dyes were excited, and their fluorescence was monitored at the excitation and emission wavelengths at appropriate filter settings. The collected images were analysed using the Scan^R analysis module, which allows the simultaneous quantification of subcellular structures that are stained by different fluorescent probes.

SMILES: NNC(=O)c1ccncc1 [Isoniazid]
- C/x10 ratio: 1.3
